Experimental data published in PubChem BioAssay AID2685 (National Center for Advancing Translational Sciences (NCATS), 2010).
This is one part of the list. These are further read-outs of the screen, such as a control signal, another cell line or another target. No call is given for them. The list favours compounds with an active or inconclusive main result. Potencies come from curve fits of mixed quality, noted in brackets.

Test: qHTS Assay for Lipid Storage Modulators in Drosophila S3 Cells;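 for cell number change: cells counted by Cell Tracker Red CMTPX staining in the red channel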
Settings: BODIPY lipid droplet fluorescence, 18-24 h; for cell number change: measured here: cell count max response, cells fed with added oleic acid
Method in brief: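 Drosophila S3 cells got compounds at several concentrations plus oleic acid (400 uM solution). Laser-scanning cytometry with 488 nm excitation read lipid droplets at 500-530 nm and cells at 575-640 nm. Percent activity was relative to 20 uM Triacsin C.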

[1] = measured here: cell number channel AC50, cells fed with added oleic acid
[2] = measured here: lipid fluorescence (Fed channel) AC50, cells fed with added oleic acid

Row | SMILES | AC50 [1] | AC50 [2] | cell number change [%]
1 | CS(=O)(=O)N1CCN(c2ccc([N+](=O)[O-])c3cccnc23)CC1 | 6.51 µM [rising, single point] | 6.51 µM [rising, single point] | 
2 | Cc1ccc(OCC(=O)NCCNC(=O)COc2ccc(C)cc2)cc1 | 2.06 µM [rising, partial curve] |  | 19.7
3 | CC1(C)C2CCC1(CS(=O)(=O)N1CCC(C(=O)O)CC1)C(=O)C2 (centres undefined) | 1.03 µM [falling, full curve, poor fit] | 4.11 µM [falling, single point] | 10.4
4 | CCOC(=O)c1ccccc1-n1c(C)cc(C2N=C(N)Nc3nc4ccccc4n32)c1C (centres undefined) | 20.6 µM [falling, single point] |  | -42.9
5 | Cc1ccc(-c2cc(-c3ccccc3)no2)cc1 |  | 0.00461 µM [falling, full curve, poor fit] | 16.2
6 | COc1ccc(-c2csc(N3CCN(S(=O)(=O)c4ccc5c(c4)NC(=O)CO5)CC3)n2)cc1 |  | 20.6 µM [rising, partial curve] | 18.6
7 | CC(=O)c1ccc(S(=O)(=O)NCCC(=O)OCC(=O)NCCc2ccccc2)cc1 |  | 9.2 µM [rising, partial curve] | 
8 | CC1CC(c2ccccc2)=Nc2ccccc2N1 (centres undefined) |  | 3.66 µM [falling, partial curve, poor fit] | 
9 | CCN(Cc1cccs1)C(=O)CN1C(=O)NC(c2ccccc2)(c2ccccc2)C1=O | 0.411 µM [rising, partial curve, poor fit] |  | 1.61
10 | CCOC(=O)Cc1csc(SCC(=O)NC2CCCC(C)C2C)n1 (centres undefined) |  | 18.4 µM [falling, single point] | 1.59
11 | CCOc1ccc(S(=O)(=O)NCCC(=O)OCN2C(=O)c3ccccc3C2=O)cc1 | 0.82 µM [falling, full curve] | 5.17 µM [falling, partial curve] | 2.56
12 | CCOC(=O)c1cc2c(ccn2-c2ccc(F)cc2)n1CC(=O)N1CCN(C(=O)c2ccco2)CC1 |  |  | -5.2
13 | Cc1cc(=O)[nH]c(SCC(=O)N(CCC#N)c2ccccc2)c1C#N |  |  | 69.1
14 | CCCC(C(=O)NC1CCCC1)N(Cc1ccc(F)cc1)C(=O)c1snc(C(N)=O)c1N (centres undefined) |  |  | -1.32
15 | CN(C)c1ccc(C(=O)c2ccc(N(C)C)c3ccccc23)cc1 |  | 1.3 µM [falling, partial curve] | -16.1
16 | O=C(c1cc(S(=O)(=O)N2CCOCC2)ccc1Cl)N1CCOCC1 |  | 29.1 µM [rising, single point] | 1.93

From compound 4 as far as 5, as listed above:
Row | SMILES | AC50 [1] | AC50 [2] | cell number change [%]
4 | CCOC(=O)c1ccccc1-n1c(C)cc(C2N=C(N)Nc3nc4ccccc4n32)c1C (centres undefined) | 20.6 µM [falling, single point] |  | -42.9
5 | Cc1ccc(-c2cc(-c3ccccc3)no2)cc1 |  | 0.00461 µM [falling, full curve, poor fit] | 16.2
